# Reference: PubChem BioAssay AID651640 (Broad Institute, 2012)
# Values joined by “and” are separate entries in the source; they are usually repeats but may differ in a detail not shown here. Equal values may be shown once. Among all 350,000 compounds or so, about 6,000 (1.7%) were called active. The shares of active, inactive and inconclusive entries below differ from those in the screen. No stated cut-off is given here; in the data, active means CPE inhibition above about 20% (passing the limit was not always enough); inconclusive means no clear call, values can overlap the other calls; tested in BHK-21 cells. More than one record can exist for a structure, and the calls need not agree.
# Assay: protection of cells from dengue 2 killing – plate reader, single concentration, primary screen (AID 651640);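 further: 0% = median of neutral control wells and 100% = median of positive control wells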
# Conditions: DENV2-infected cells, cytopathic effect rescue, at 9.99 µM, active compounds read high
row,SMILES,CPE inhibition
1,COc1ccc([C@H]2/C=C\CN(C(=O)c3ccc(C)cc3)[C@@H](C)C(=O)N2Cc2ccc(F)cc2)cc1,active: 125%
2,CCCC(=O)Nc1ccc(NC(=S)NC(=O)c2ccccc2[N+](=O)[O-])cc1,inactive: 0.541%
3,CC(=O)N1[C@H](CO)[C@@H](c2ccc(-c3cccc(F)c3)cc2)[C@H]1CNC(=O)C1CC1,active: 124%
4,O=C(O)c1ccc(-c2nc(-c3ccccc3)cs2)cc1,inactive: -2.64%
5,CC(C)OC(=O)Nc1ccc2c(c1)N(C(=O)CCN1CCN(CCO)CC1)c1ccccc1CC2,inconclusive: 21.4%
6,COC(=O)c1c(NC(=O)C(Cl)Cl)sc2c1C(C(=O)OC)CC2 (configuration not stated),active: 122%
7,O=C1CCN(CCc2ccccc2)CCN1[C@H](CSc1ccc(Br)cc1)c1ccccc1,inconclusive: 27.9%
8,O=C(NC(=S)Nc1c(Cl)ccc2nsnc12)c1ccccc1F,inconclusive: 21.3%
9,CCCc1cc(C(=O)NC2CCCC2)no1,inactive: 0.278%
10,COCc1cn(CC[C@H]2CC[C@H](NC(=O)Nc3c(C)noc3C)[C@@H](CO)O2)nn1,inactive: 6.28%
11,C[C@@H]1CN([C@H](C)CO)C(=O)c2cc(NS(=O)(=O)c3ccccc3)ccc2O[C@@H](C)CCCCO[C@@H]1CN(C)C(=O)CCC(F)(F)F,inconclusive: 32.8%
12,CC(=O)N(C)C[C@@H]1Oc2ncc(-c3ccc(C)cc3)cc2C(=O)N([C@@H](C)CO)C[C@@H]1C,inconclusive: 38.9%
13,CC(C)NC(=O)N1CC[C@H]2[C@@H]1c1cc(Br)ccc1N(C)[C@H]2CO,inconclusive: 20.5%
14,COc1cc(C(=O)C(=O)N2CCC(Cc3ccccc3)CC2)cc2ccccc12,inconclusive: 20.2%
15,C[C@H]1CN([C@@H](C)CO)C(=O)c2cccc(NC(=O)c3ccncc3)c2O[C@H]1CN(C)CC1CCCCC1,inconclusive: 24.4%
16,Cc1ccc(S(=O)(=O)N(CC(=O)O)Cc2ccco2)cc1,active: 28%
17,C[C@H](CO)N1C[C@H](C)[C@H](CN(C)Cc2ccc(C(=O)O)cc2)Oc2c(NS(=O)(=O)c3ccccc3)cccc2C1=O,active: 50.3%
18,CC(C)Sc1nc(SCC(=O)O)c2c3c(sc2n1)COC(C)(C)C3,inactive: 0.812%
19,N#C[C@H]1[C@H](c2ccc(C3=CCCCC3)cc2)[C@H](CO)N1C(=O)CN1CCOCC1,inconclusive: 22.8%
20,C[C@H]1CN([C@@H](C)CO)C(=O)Cc2cc(NC(=O)Cc3ccccc3)ccc2O[C@H]1CN(C)C(=O)Nc1cccc2ccccc12,inactive: 17.8% and inactive: 4.46%
21,CCc1nc2c(OCc3c(C)noc3C)cccn2c1N(C=O)Cc1ccccc1,inconclusive: 63.7%
22,CNc1cc(-c2cccc(OC)c2F)nc2ccnn12,inconclusive: 69.8%
23,CCCC(=O)N1CC2(C1)CN(C(C)=O)[C@H](CO)c1c2c2ccc(OC)cc2n1C,inconclusive: 39%
24,Cc1noc(C)c1S(=O)(=O)Nc1ccc2c(c1)C(=O)N([C@H](C)CO)C[C@@H](C)[C@@H](CN(C)Cc1ccc(C(F)(F)F)cc1)OCCCC[C@@H](C)O2,inactive: -11.1%

# Reprinted at random: 2 compounds from above
row,SMILES,CPE inhibition
17,C[C@H](CO)N1C[C@H](C)[C@H](CN(C)Cc2ccc(C(=O)O)cc2)Oc2c(NS(=O)(=O)c3ccccc3)cccc2C1=O,active: 50.3%
11,C[C@@H]1CN([C@H](C)CO)C(=O)c2cc(NS(=O)(=O)c3ccccc3)ccc2O[C@@H](C)CCCCO[C@@H]1CN(C)C(=O)CCC(F)(F)F,inconclusive: 32.8%

# Additional results.

row,SMILES,CPE inhibition
1,C[C@@H]1CN([C@H](C)CO)C(=O)Cc2cc(NC(=O)Cc3ccccc3)ccc2O[C@H]1CN(C)Cc1ccc(Cl)c(Cl)c1,active: 27.5%
2,COc1ccccc1S(=O)(=O)N[C@H]1CC[C@@H](CC(=O)N2CCCCC2)O[C@H]1CO,inactive: 2.9%
3,COc1ccc(C#Cc2ccc3c(c2)[C@H]2[C@H](CCN2C(=O)c2cccc(F)c2)[C@@H](CO)N3)cc1,inconclusive: 120%
4,O=C1c2ccccc2N[C@@H]2C=CC[C@@H]2N1O,inconclusive: 32.3%
5,Cc1cc(C(=O)Nc2ccc3c(c2)C(=O)N(C)[C@H]2CC[C@H](CC(=O)N[C@@H](C)c4ccccc4)O[C@H]2CO3)no1,inactive: -6.79%
6,CC(C)(CO)CN1CCC(n2nccc2NC(=O)C2CCCC2)CC1,inactive: 0.964%
7,NC1=NC[C@@H](Cc2ccc(O)cc2)N1CCCCC1CCCCC1,inconclusive: 22.7%
8,NC(=O)CC(NC(=O)c1cccc(Br)c1)c1ccc(N2CCC(N3CCCCC3)CC2)c([N+](=O)[O-])c1 (configuration not stated),inconclusive: 36.1%
9,O=C(COc1cc2oc(=O)c3c(c2cc1Cl)CCCC3)NCC1CCC(C(=O)O)CC1 (configuration not stated),inactive: -0.306%
10,C[C@H]1CN([C@@H](C)CO)C(=O)c2cc(C3=CCCCC3)cnc2O[C@H]1CN(C)C(=O)c1ccncc1,inactive: 0.078%
11,C[C@H](O)C#Cc1ccc2c(c1)O[C@H](CN(C)C(=O)c1ccccc1)[C@@H](C)CN([C@@H](C)CO)S2(=O)=O,inactive: -9.03%
12,Cc1nc2nc(NC(=O)c3ccco3)[nH]n2c(=O)c1C,inconclusive: 30.1%
13,Cc1ccc(Cn2c(=N)c(C(=O)NCC3CCCO3)cc3c(=O)n4cccc(C)c4nc32)cc1 (configuration not stated),inconclusive: 22.3%
14,CCC(C)NC(=O)c1cc(Cl)c(NC(=O)C2=C(C)OCCS2)cc1OC (configuration not stated),inconclusive: 29.5%
15,CO[C@H]1CN(C)C(=O)c2ccc(NC(=O)Cc3ccccc3)cc2OC[C@H](C)N(C(=O)c2ccccc2F)C[C@H]1C,inactive: 4.33%
16,Cc1ccc(-c2cc([C@H]3[C@H]4C=CC[C@@H](C)[C@@H]4C(=O)N3Cc3ccccc3)ccc2F)cc1,inconclusive: 25.5%
17,COCCNC(=O)C[C@@H]1CC[C@@H]2[C@H](COC[C@H](O)CN2C(=O)Nc2ccccc2OC)O1,inactive: -2.23%
18,COc1cc(O)c(C(CCN2CCCCC2)c2ccc(N(C)C)cc2)c(OC)c1 (configuration not stated),inactive: -1.96%
19,O=C(COC(=O)c1cnc(Cl)c(Cl)c1)NC1CCCC1,inconclusive: 56%
20,CCNC(=O)[C@@H]1[C@@H](CO)[C@@H]2Cn3c(ccc(-c4ccccc4F)c3=O)[C@H]1N2CC1CC1,inactive: 11.8%
21,CCN(CC(=O)Nc1c(F)cccc1F)C(=O)Cc1c[nH]c2ccccc12,inconclusive: 62.2%
22,COc1cc(CNCCCN2CCOCC2)ccc1OCC(=O)NC(C)(C)C,inactive: 5.52%
23,C[C@@H]1CCCCO[C@@H](CN(C)C(=O)c2ccncc2)[C@@H](C)CN([C@@H](C)CO)C(=O)c2cc(NC(=O)CCC(F)(F)F)ccc2O1,inconclusive: 69.6%
24,O=C(C[C@@H]1C[C@@H]2c3cc(NC(=O)CC4CC4)ccc3O[C@@H]2[C@@H](CO)O1)NCc1cccc(F)c1,inconclusive: 24%

row,SMILES,CPE inhibition
1,COc1ccc(C)cc1N(C)C(=O)Cc1c(C(=O)O)n(C)c2ccccc12,inactive: -12.4%
2,CC1CCCN(S(=O)(=O)c2ccc3c(c2)c(=O)nc2ccc(Cl)cn23)C1 (configuration not stated),inconclusive: 45.8%
3,O=C(N[C@H]1CC[C@H](CCn2cc(-c3ccccc3)nn2)O[C@@H]1CO)c1cnccn1,inconclusive: 21.4%
4,Cc1ccc(Nc2nc(Cl)nc3ncn(C)c23)c(C)c1,inconclusive: 23.4%
5,COc1ccc(CNC(=O)C[C@@H]2CC[C@@H]3[C@@H](COc4ccc(NC(=O)C5CC5)cc4C(=O)N3C)O2)cc1,inconclusive: 95.3%
6,CC(C)NC(=O)Nc1ccc2c(c1)CC(=O)N([C@@H](C)CO)C[C@H](C)[C@@H](CN(C)Cc1ccc(Oc3ccccc3)cc1)O2,inconclusive: 21%
7,C[C@@H]1CCCCO[C@@H](CN(C)C(=O)c2ccccc2)[C@H](C)CN([C@H](C)CO)C(=O)c2cc(NS(=O)(=O)c3ccc(F)cc3)ccc2O1,active: 22.1%
8,CC1(C(=O)NS(=O)(=O)c2ccc(Cl)cc2)CCN1C(=O)CCc1cccs1 (configuration not stated),inconclusive: 46.3%
9,C[C@@H]1CN([C@H](C)CO)S(=O)(=O)c2ccc(C#CC3CC3)cc2O[C@@H]1CN(C)C(=O)c1cccnc1,inconclusive: 20.2%
10,O=S(=O)(NC1CCCCC1N1CCC(O)CC1)c1ccc(Cl)cc1 (configuration not stated),inconclusive: 32%
11,COc1ccc2cc(CCNC(=O)C(C)(C)C)c(=O)[nH]c2c1,inconclusive: 20.3%
12,COc1ccc(Cc2nnc(-c3ccccc3)o2)cc1,inactive: -0.621%
13,CCN1C(=O)c2ccccc2S(=O)c2ccc(C(=O)N3CCCC3)cc21 (configuration not stated),inconclusive: 32.5%
14,COc1ccc(CNC(=O)C[C@H]2C=C[C@H](NC(=O)c3ccc4c(c3)OCO4)[C@H](CO)O2)cc1,active: 60.8%
15,O=C(NCc1ccccn1)C(=O)NCC1OCCN1S(=O)(=O)c1ccc(Br)cc1 (configuration not stated),active: 63.7%
16,CC(C)CC1O[C@@H](C)[C@@H]2CN3CCc4c([nH]c5ccccc45)[C@@H]3C[C@@H]2N1C (some centres not stated),inconclusive: 37.5%
17,Oc1ccc(Cl)cc1Sc1cc(Cl)ccc1O,inactive: 0.69%
18,C[C@H](CO)N1C[C@H](C)[C@@H](CN(C)S(=O)(=O)c2ccccc2)Oc2c(NC(=O)Nc3ccccc3)cccc2C1=O,inactive: -7.68% and inactive: -11.5%
19,O=C(NCc1ccccc1)C1=C[C@@H](C2CC2)C[C@@H](OCc2ccc(CO)cc2)O1,active: 26.1%
20,N/C(=N\O)c1cn(Cc2ccccc2Cl)c2ccccc12,inconclusive: 23.1%
21,O=S(=O)(c1ccccc1F)N1CC[C@H]2[C@H](CO)Nc3ccc(-c4cccc(F)c4)cc3[C@H]21,active: 28.6%
22,CCOc1ccc(NC(=O)CN(C)C(=O)c2c(-c3ccccc3Cl)noc2C)cc1OCC,inconclusive: 22%
23,O=C(c1ccccn1)N1CC(=O)N2[C@H](CO)[C@@H](c3ccc(C#Cc4ccccc4)cc3)[C@@H]2C1,active: 51.9%
24,COc1ccc(C(=O)NCCc2nnc3ccc(SCC(=O)NCc4ccccc4)nn23)cc1,inconclusive: 68.3%
